Results taken from publication PMC8510174.
Results are given in words; binding and its absence hold for the method and conditions named. Binding calls can cover weak binding; strength is not graded here. Tags and fused reporters may be left off the sequences shown.

B1: His6-tagged WT TRN-SR2 (transportin-SR2) (protein, UniProt Q9Y5L0-2 1-923)
chain: MEGAKPTLQLVYQAVQALYHDPDPSGKERASFWLGELQRSVHAWEISDQLLQIRQDVESCYFAAQTMKMKIQTSFYELPTDSHASLRDSLLTHIQNLKDLSPVIVTQLALAIADLALQMPSWKGCVQTLVEKYSNDVTSLPFLLEILTVLPEEVHSRSLRIGANRRTEIIEDLAFYSSTVVSLLMTCVEKAGTDEKMLMKVFRCLGSWFNLGVLDSNFMANNKLLALLFEVLQQDKTSSNLHEAASDCVCSALYAIENVETNLPLAMQLFQGVLTLETAYHMAVAREDLDKVLNYCRIFTELCETFLEKIVCTPGQGLGDLRTLELLLICAGHPQYEVVEISFNFWYRLGEHLYKTNDEVIHGIFKAYIQRLLHALARHCQLEPDHEGVPEETDDFGEFRMRVSDLVKDLIFLIGSMECFAQLYSTLKEGNPPWEVTEAVLFIMAAIAKSVDPENNPTLVEVLEGVVRLPETVHTAVRYTSIELVGEMSEVVDRNPQFLDPVLGYLMKGLCEKPLASAAAKAIHNICSVCRDHMAQHFNGLLEIARSLDSFLLSPEAAVGLLKGTALVLARLPLDKITECLSELCSVQVMALKKLLSQEPSNGISSDPTVFLDRLAVIFRHTNPIVENGQTHPCQKVIQEIWPVLSETLNKHRADNRIVERCCRCLRFAVRCVGKGSAALLQPLVTQMVNVYHVHQHSCFLYLGSILVDEYGMEEGCRQGLLDMLQALCIPTFQLLEQQNGLQNHPDTVDDLFRLATRFIQRSPVTLLRSQVVIPILQWAIASTTLDHRDANCSVMRFLRDLIHTGVANDHEEDFELRKELIGQVMNQLGQQLVSQLLHTCCFCLPPYTLPDVAEVLWEIMQVDRPTFCRWLENSLKGLPKETTVGAVTVTHKQLTDFHKQVTSAEECKQVCWALRDFTRLFR
B2: GST-tagged WT TRN-SR2 (protein, UniProt Q9Y5L0-2 1-923)
chain: MEGAKPTLQLVYQAVQALYHDPDPSGKERASFWLGELQRSVHAWEISDQLLQIRQDVESCYFAAQTMKMKIQTSFYELPTDSHASLRDSLLTHIQNLKDLSPVIVTQLALAIADLALQMPSWKGCVQTLVEKYSNDVTSLPFLLEILTVLPEEVHSRSLRIGANRRTEIIEDLAFYSSTVVSLLMTCVEKAGTDEKMLMKVFRCLGSWFNLGVLDSNFMANNKLLALLFEVLQQDKTSSNLHEAASDCVCSALYAIENVETNLPLAMQLFQGVLTLETAYHMAVAREDLDKVLNYCRIFTELCETFLEKIVCTPGQGLGDLRTLELLLICAGHPQYEVVEISFNFWYRLGEHLYKTNDEVIHGIFKAYIQRLLHALARHCQLEPDHEGVPEETDDFGEFRMRVSDLVKDLIFLIGSMECFAQLYSTLKEGNPPWEVTEAVLFIMAAIAKSVDPENNPTLVEVLEGVVRLPETVHTAVRYTSIELVGEMSEVVDRNPQFLDPVLGYLMKGLCEKPLASAAAKAIHNICSVCRDHMAQHFNGLLEIARSLDSFLLSPEAAVGLLKGTALVLARLPLDKITECLSELCSVQVMALKKLLSQEPSNGISSDPTVFLDRLAVIFRHTNPIVENGQTHPCQKVIQEIWPVLSETLNKHRADNRIVERCCRCLRFAVRCVGKGSAALLQPLVTQMVNVYHVHQHSCFLYLGSILVDEYGMEEGCRQGLLDMLQALCIPTFQLLEQQNGLQNHPDTVDDLFRLATRFIQRSPVTLLRSQVVIPILQWAIASTTLDHRDANCSVMRFLRDLIHTGVANDHEEDFELRKELIGQVMNQLGQQLVSQLLHTCCFCLPPYTLPDVAEVLWEIMQVDRPTFCRWLENSLKGLPKETTVGAVTVTHKQLTDFHKQVTSAEECKQVCWALRDFTRLFR

Assays:
[1] = target: GST-tagged HIV-1 integrase (IN) (HIV-1); assay: AlphaScreen or HTRF; His6-TRN-SR2 titrated (3-fold dilution series from 1,000 nM) over a fixed 80 nM GST-IN; Ni2+ chelate acceptor and glutathione donor beads; 25 mM Tris pH 7.4, 150 mM NaCl, 1 mM MgCl2, 0.1% Tween 20, 0.1% BSA; 1 h at 4°C, then 1 h at 30°C with beads; both purified
[2] = target: N-terminally His6-tagged HIV-1 IN (HIV-1); assay: AlphaScreen or HTRF; alternative tags (Fig. S5): GST-TRN-SR2 titrated (3-fold dilution series from 1,000 nM) over a fixed 200 nM His6-IN; Ni2+ chelate acceptor and glutathione donor beads; 25 mM Tris pH 7.4, 150 mM NaCl, 1 mM MgCl2, 0.1% Tween 20, 0.1% BSA; both purified

| Binder | binding [1] | binding [2] |
| --- | --- | --- |
| B1 | binds |  |
| B2 |  | binds |
